Measured values: PubChem BioAssay AID2549 (National Center for Advancing Translational Sciences (NCATS), 2010)
Hit rate of the full screen: of about 240,000 compounds, about 1,300 (0.54%) were called active. The inconclusive results got no clear call from the source; some entries with a clear call stand among them for comparison. The call rests on the fitted dose curve; in most records, active means well fitted inhibition curve with a large enough effect; inconclusive means small, poorly fitted or top-dose-only effect; inactive means flat fitted curve, though single readings scatter. Where the call is inconclusive, the potency comes from a doubtful curve fit. More than one record can exist for a structure, and the calls need not agree.
Further: nearly all actives have a fitted effect of over 30% in size.
Potency means the concentration at half of the fitted maximal effect.

Protein sequences, listed by entry. Tags and fused reporters are not part of them. Lines headed by an entry give the natural chain unless they say otherwise; changes in a name come on top.
UniProt P46063: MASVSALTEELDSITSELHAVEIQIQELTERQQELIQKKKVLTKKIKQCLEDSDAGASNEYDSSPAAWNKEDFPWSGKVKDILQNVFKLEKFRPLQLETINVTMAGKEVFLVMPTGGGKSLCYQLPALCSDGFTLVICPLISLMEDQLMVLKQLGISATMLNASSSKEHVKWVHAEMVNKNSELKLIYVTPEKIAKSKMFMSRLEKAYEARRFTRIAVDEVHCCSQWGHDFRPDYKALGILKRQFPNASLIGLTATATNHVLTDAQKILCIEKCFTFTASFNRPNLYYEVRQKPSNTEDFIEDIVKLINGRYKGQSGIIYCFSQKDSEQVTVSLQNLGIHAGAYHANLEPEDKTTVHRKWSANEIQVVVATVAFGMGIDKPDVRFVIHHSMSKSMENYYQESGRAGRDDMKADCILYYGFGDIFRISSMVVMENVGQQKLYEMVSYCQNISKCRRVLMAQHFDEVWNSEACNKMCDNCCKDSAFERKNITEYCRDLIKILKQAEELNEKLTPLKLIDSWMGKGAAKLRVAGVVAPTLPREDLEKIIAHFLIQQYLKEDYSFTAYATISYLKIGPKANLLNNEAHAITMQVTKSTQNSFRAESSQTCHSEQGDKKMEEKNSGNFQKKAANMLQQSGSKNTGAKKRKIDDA

What follows are compounds tested against ATP-dependent DNA helicase Q1 (Homo sapiens) (UniProt P46063) (assay: qHTS Assay for Inhibitors of RecQ-Like Dna Helicase 1 (RECQ1)). Settings: RECQ1 DNA unwinding, red fluorescence kinetic read; series mostly up to 57.3 µM.
How it was run: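 RECQ1T1 50 nM; forked duplex (20 bp + 30-nt ss tails) 200 nM, ATP 2 mM final; pH 8.0, 2 mM MgCl2, 2.5 ug/ml poly(dI-dC); 15 min compound preincubation; discontinuous kinetic read over 2 h at RT.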
With `Cc1ccc(CN2C(=O)N/C(=C/c3cc(C)n(-c4ccccn4)c3C)C2=O)cc1` the Potency was inconclusive: 1.12 µM [inhibitor, full curve, poor fit].
`O=c1cc(-c2ccccc2Cl)oc2c(NS(=O)(=O)c3cc(Cl)cc(Cl)c3O)ccc(O)c12` was tested, and the Potency was inconclusive: 35.5 µM [inhibitor, single point].
`CCOc1ccc(NC(=O)Nc2cccn(Cc3ccccc3)c2=O)cc1` was tested, and the Potency was inconclusive: 39.8 µM [inhibitor, single point].
With `COc1cc(CNCCO)ccc1OC1CCCC1` the Potency was inconclusive: 0.158 µM [inhibitor, full curve, poor fit].
For `CCOC(=O)c1c(C)oc(/N=C/c2ccccc2O)c1C#N`, the Potency was “inactive”.
For `COc1cccc(N2CCN(Cc3nc(N)nc(N4CCCc5ccccc54)n3)CC2)c1`, the Potency was inconclusive: 0.398 µM [inhibitor, partial curve, poor fit].
For `CCOC(=O)c1cc2c(=O)n3cccc(C)c3nc2n(Cc2ccco2)c1=NC(=O)c1cccnc1`, the Potency was inconclusive: 28.2 µM [inhibitor, partial curve].
For `CCCCCCOc1ccc(/C=c2\s/c(=C(/C#N)C(=O)NCc3ccco3)n(-c3ccccc3)c2=O)cc1`, the Potency was inconclusive: 3.55 µM [inhibitor, partial curve].
`CC(=O)NCCNc1ccc([N+](=O)[O-])cc1C#N` was tested, and the Potency was inconclusive: 0.501 µM [inhibitor, single point].
With `Cc1cccc(Nc2ccccc2C(=O)O)c1C` the Potency was “inactive”.
For `OCC#CCSc1nnc(-c2ccc(Br)cc2)o1`, the Potency was inconclusive: 35.5 µM [inhibitor, partial curve].
With `OC1CCC2Cc3ccccc3N=C12` (configuration not stated) the Potency was inconclusive: 2.82 µM [inhibitor, full curve, poor fit].
With `Cc1ccc(C2(c3ccc(C)cc3)CC2C(=O)Nc2ccc([N+](=O)[O-])cc2O)cc1` (configuration not stated) the Potency was inconclusive: 39.8 µM [inhibitor, single point].
`CC(C)C[C@@H](CN(C)N=O)N(C[C@H](Cc1ccccc1)N(CCc1ccccc1)N=O)N=O` was tested, and the Potency was active: 3.98 µM.
With `C/C(CC(=O)Nc1cccc(Cl)c1Cl)=N\NC(=O)c1ccccc1C` the Potency was inconclusive: 3.98 µM [inhibitor, partial curve].
For `COc1cccc(-c2cc(=O)c3ccc(OC)cc3o2)c1`, the Potency was inconclusive: 1.26 µM [inhibitor, full curve, poor fit].
In the case of `COc1cccc(/C=C2\SC(=O)NC2=O)c1OCc1ccc(C(=O)O)cc1`, the Potency is reported as “inactive”.
With `C#CCn1c(=NC(=O)c2sc3ccccc3c2Cl)sc2cc(S(N)(=O)=O)ccc21` the Potency was “inactive”.
With `Nc1ccc2c3c(cccc13)C(=O)NC2=O` the Potency was active: 25.1 µM.
`O=C(CSc1n[nH]c(=O)n1C1CC1)N1N=C(c2ccc(Cl)cc2)CC1c1ccco1` (configuration not stated) was tested, and the Potency was “inactive”.
With `Clc1ccc(SCc2cn3cccnc3n2)cc1` the Potency was inconclusive: 0.0282 µM [inhibitor, full curve].
With `Cc1cccc(N2CCN(S(=O)(=O)c3ccc4[nH]c(=O)c(=O)[nH]c4c3)CC2C)c1` (configuration not stated) the Potency was inconclusive: 39.8 µM [inhibitor, single point].
In the case of `CC(C)(C)c1ccc(-c2nnc3sc(-c4ccncc4)nn23)cc1`, the Potency is reported as inconclusive: 0.631 µM [inhibitor, full curve].
With `COc1ccccc1NC(=S)N1CCN(c2nc(-c3ccccc3)cs2)CC1` the Potency was inconclusive: 25.1 µM [inhibitor, single point].
In the case of `CC1(c2nnc(-c3ccccc3)o2)CC(c2ccc(Cl)cc2)=NO1` (configuration not stated), the Potency is reported as inconclusive: 1.41 µM [inhibitor, full curve, poor fit].
`CCOC(=O)c1ccc(NC(=O)CC2Sc3ncnn3C2=O)cc1` (configuration not stated) was tested, and the Potency was “inactive”.
In the case of `CCn1c(SCC(=O)c2ccc3c(c2)OCCO3)nnc1C(C)C`, the Potency is reported as inconclusive: 39.8 µM [inhibitor, single point].
`CC(OC(=O)CCCCCN=C1NS(=O)(=O)c2ccccc21)C(=O)Nc1cc(Cl)cc(Cl)c1` (configuration not stated) was tested, and the Potency was inconclusive: 0.708 µM [inhibitor, full curve].
`Oc1ccc(CNc2ccccc2F)c2cccnc12` was tested, and the Potency was “inactive”.
For `CCNC(=O)COC(=O)c1cc(-c2ccco2)nc2ccccc12`, the Potency was active: 28.2 µM.
With `O=[N+]([O-])c1cc(S(=O)(=O)C(F)(F)F)ccc1N1CCN(c2ccccc2)CC1` the Potency was inconclusive: 39.8 µM [inhibitor, single point].
With `COc1cc(/C=C2\SC(=S)N(NS(=O)(=O)c3ccc(C)cc3)C2=O)ccc1O` the Potency was active: 22.4 µM.
With `O=C1/C(=C/c2ccco2)SC(=S)N1c1cccnc1` the Potency was active: 8.91 µM.
For `O=S(=O)(c1ccccc1)c1nc(NC2CC2)sc1Cl`, the Potency was active: 39.8 µM.
`O=C(c1cc(C(F)(F)F)cc(C(F)(F)F)c1)N1CCC[C@@]2(CCN(c3ccncc3)C2)C1` was tested, and the Potency was “inactive”.
For `CC(C)(C)OC(=O)C(C(=O)OC(C)(C)C)c1ccc(Cl)nn1`, the Potency was “inactive”.
`Clc1ccc(C2=NCCN2)cc1` was tested, and the Potency was inconclusive: 35.5 µM [inhibitor, single point].
`NC(C(=O)O)c1cc(O)cc(O)c1` (configuration not stated) was tested, and the Potency was inconclusive: 39.8 µM [inhibitor, single point].
In the case of `COc1ccc(N/C=C/C(=C(C#N)C#N)N(C)C)cc1`, the Potency is reported as inconclusive: 0.158 µM [inhibitor, full curve, poor fit].
With `CCOC(=O)c1ccc(NS(C)(=O)=O)cc1` the Potency was inconclusive: 0.158 µM [inhibitor, full curve, poor fit].
For `COc1ccc(C2/C=C\CC(OCc3ccccc3)CC(=O)N2Cc2cccc(F)c2)cc1` (configuration not stated), the Potency was inconclusive: 39.8 µM [inhibitor, single point].
`Cc1ccc(CNC(=O)C2CC(c3ccccc3F)=NO2)cc1` (configuration not stated) was tested, and the Potency was “inactive”.
In the case of `COc1ccccc1N1CCN(/N=C/c2cccc(OC)c2O)CC1`, the Potency is reported as “inactive”.
In the case of `CN1C(=CC=C2C=C(I)C(=O)C(I)=C2)C(C)(C)c2ccccc21`, the Potency is reported as active: 0.631 µM.
`O=C(CSc1nccc(=O)[nH]1)NC1CCCc2ccccc21` (configuration not stated) was tested, and the Potency was “inactive”.
For `COc1ccc(OC)c(C2Nc3c(Cl)ccc(C(=O)O)c3C3C=CCC32)c1` (configuration not stated), the Potency was “inactive”.
In the case of `CC(=N\Nc1ccc(Cl)cc1)/C(=N/O)C(=O)Nc1ccccc1`, the Potency is reported as inconclusive: 35.5 µM [inhibitor, single point].
